Source: PubChem BioAssay AID1347076 (National Center for Advancing Translational Sciences (NCATS), 2019)
Among all 400,000 compounds or so, about 13,000 (3.2%) were called active. The inconclusive results got no clear call from the source; some entries with a clear call stand among them for comparison. Calls follow the shape of the dose curve; as a rule, active = well fitted cell-killing curve with a large enough effect; inconclusive = small, poorly fitted or top-dose-only effect, or effect the other way; inactive = flat fitted curve, though single readings scatter. A potency beside an inconclusive call is a rough fit, not a confirmed value.

Assay: qHTS assay for MDR1-selective chemotherapeutics: Primary screen using the drug-selected MDR subline cells KB-V1; also: nearly all actives have a fitted effect of over 60% in size
Details: KB-V1 MDR cells viability, CellTiter-Glo, 72 h; series mostly up to 46.1 µM
How it was run: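 Cells of the MDR subline KB-V1 are plated, dosed with compound at multiple concentrations, and incubated 72 h at 37 degrees C; CellTiter-Glo is then added and luminescence read after 10 min.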
Potency is read from the fitted curve at half-maximal effect.

Row | Structure (SMILES) | Potency
1 | O=C(COc1ccc(Cl)cc1Cl)N1CCCN(C(=O)COc2ccc(Cl)cc2Cl)CC1 | active: 8.2 µM
2 | CCCCOc1ccc(C(O)C(CN2CCOCC2)c2ccccc2)cc1 (stereo unspecified) | inconclusive: 5.8 µM [cytotoxic, partial curve]
3 | Cc1ccc(OCC(=O)NCCNC(=O)c2ccncc2)cc1 | inconclusive: 29.1 µM [rising, single point]
4 | CCOc1ccc(CCNC(=O)C2CCN(c3ccc(N4CCOCC4)nn3)CC2)cc1OCC | inconclusive: 20.6 µM [cytotoxic, partial curve, poor fit]
5 | CC(NC(=O)/C(C#N)=C/c1cn(-c2ccccc2)nc1-c1ccc(F)cc1)c1ccccc1 (stereo unspecified) | inactive
6 | Cc1cccc(N2CCN(C(=O)Cn3ncc4c3-c3ccccc3OC4)CC2)c1C | inactive
7 | Cc1ccccc1C(=O)/C(C#N)=N/Nc1c(C)n(C)n(-c2ccccc2)c1=O | active: 0.461 µM
8 | CCN(C(=O)c1cc(Cl)ccc1OC)c1ccccc1 | inconclusive: 23.1 µM [cytotoxic, single point]
9 | FC(F)(F)c1nc(N2CCCC2)ncc1-c1nnnn1-c1ccccc1 | active: 2.91 µM
10 | O=C(c1cc(Br)c(Br)s1)N1CCN(c2ccccn2)CC1 | inconclusive: 10.3 µM [cytotoxic, partial curve]
11 | COc1cc(C(=O)NN(CCC#N)C2=NS(=O)(=O)c3ccccc32)cc(OC)c1OC | inconclusive: 18.4 µM [rising, partial curve, poor fit]
12 | CCCn1nc(C(=O)OCC(=O)Nc2cccc(S(N)(=O)=O)c2)c2ccccc2c1=O | inconclusive: 9.2 µM [rising, partial curve, poor fit]
13 | CSc1ccccc1NC(=O)CN(C)CC(=O)NCc1ccccc1 | inconclusive: 13 µM [cytotoxic, partial curve, poor fit]
14 | O=C(NCc1ccc2c(c1)OCO2)C1CCN(c2ccc(S(=O)(=O)N3CCCC3)cc2)CC1 | active: 2.59 µM
15 | CC(CCc1ccccc1)NC(=O)CSc1nccc(=O)[nH]1 (stereo unspecified) | inactive
16 | O=C1C2C3C=CC(C3=C(c3ccccc3)c3ccccc3)C2C(=O)N1CCO (stereo unspecified) | active: 20.6 µM
17 | COc1ccccc1N1CCN(c2ccc([N+](=O)[O-])cn2)CC1 | inconclusive: 16.4 µM [cytotoxic, single point]
18 | COC(=O)c1cccc(NC(=O)C23CC4CC(C2)CC(n2cncn2)(C4)C3)c1 | active: 20.6 µM
19 | Cc1ccc(CNC(=O)Cn2cnc3cc([N+](=O)[O-])ccc3c2=O)cc1 | inconclusive: 1.3 µM [rising, full curve]
20 | O=c1[nH]c(Nc2ccccc2)cc2cc(Br)ccc12 | inconclusive: 29.1 µM [cytotoxic, single point]
21 | O=C(N/C(=C/c1cccs1)C(=O)N1CCCCCC1)c1ccccc1 | active: 20.6 µM
22 | Fc1cc2[nH]c(=S)[nH]c2c(Br)c1N1CCSCC1 | inconclusive: 23.1 µM [cytotoxic, single point]
23 | CCc1ccc2oc(=O)cc(CN(C)Cc3ccccc3)c2c1 | inconclusive: 20.6 µM [cytotoxic, partial curve, poor fit]
24 | O=C(NC(=S)Nc1ncccn1)c1ccc(Cl)cc1Cl | inactive

A draw from above in order of molecular weight, descending:
Row | Structure (SMILES) | Potency
5 | CC(NC(=O)/C(C#N)=C/c1cn(-c2ccccc2)nc1-c1ccc(F)cc1)c1ccccc1 (stereo unspecified) | inactive
10 | O=C(c1cc(Br)c(Br)s1)N1CCN(c2ccccn2)CC1 | inconclusive: 10.3 µM [cytotoxic, partial curve]
7 | Cc1ccccc1C(=O)/C(C#N)=N/Nc1c(C)n(C)n(-c2ccccc2)c1=O | active: 0.461 µM
22 | Fc1cc2[nH]c(=S)[nH]c2c(Br)c1N1CCSCC1 | inconclusive: 23.1 µM [cytotoxic, single point]

The list continues.

Row | Structure (SMILES) | Potency
25 | CCCn1c(SCC(=O)N2CCCc3ccccc32)nc2c1c(=O)n(C)c(=O)n2C | inconclusive: 4.11 µM [cytotoxic, full curve, poor fit]
26 | Cn1c(C(=O)NCCN2CCOCC2)cc2c(=O)n(C)c3ccccc3c21 | inactive
27 | CCc1ccc(NC(=O)C(=O)c2ccccc2NC(C)=O)cc1 | active: 23.1 µM
28 | Cc1ccc(CNc2ccc3c(c2)ncn3C(C)(C)C)cc1 | inconclusive: 7.31 µM [cytotoxic, partial curve, poor fit]
29 | COc1ccccc1OCC(=O)NCC1CCCCC1 | active: 20.6 µM
30 | CCCCC[n+]1ccn(-c2nc3ccccc3nc2[N-]S(=O)(=O)c2ccccc2)c1 | inactive
31 | CC(=O)c1ccc(NC(=O)c2nc(-c3ccccc3)n(-c3ccccc3Cl)n2)cc1 | inactive
32 | COc1cccc(-c2cc(C(=O)Nc3ccccc3)c3ccccc3n2)c1 | inconclusive: 4.61 µM [cytotoxic, full curve, poor fit]
33 | COc1ccc(NC(=O)Nc2c(O)ccc3ccccc23)cc1 | inactive
34 | O=C(Nc1cccc(S(=O)(=O)N2CCCCCC2)c1)c1ccc(=O)[nH]c1 | inactive
35 | S=C(NCc1ccc(Cl)cc1Cl)NC1CCCCC1 | inconclusive: 29.1 µM [cytotoxic, single point]
36 | O=C(CSc1nc2ccccc2c(=O)n1CCCN1CCOCC1)NC12CC3CC(CC(C3)C1)C2 | active: 9.2 µM
37 | O=C(Nc1ccccc1)N1CCN(Cc2ccc(Cl)cc2)CC1 | inactive
38 | CC(=O)c1cccc(-n2c(=O)c3c4c(sc3n(CC(=O)c3ccc(Cl)cc3)c2=O)CN(C(C)=O)CC4)c1 | inconclusive: 29.1 µM [rising, single point]
39 | CCOc1cc(C(=O)Nc2ccc(-c3nc4cc(Cl)ccc4o3)cc2)cc(OCC)c1OCC | inactive
40 | COc1cccc(CN(CC(=O)NCc2ccccc2)C(=O)c2csnn2)c1 | inactive
41 | C[C@H]1COC(=O)[C@@H](Cc2ccc(F)cc2)C/C=C\C[C@H](CC(=O)NCCO)C(=O)N1 | inconclusive: 16.4 µM [rising, single point]
42 | O=C(Cn1nc(C(F)F)cc1C(F)F)N/N=C/c1ccc2c(c1)OCO2 | inconclusive: 12.6 µM [rising, single point]
43 | CC(Nc1nc(Nc2ccc(F)cc2)nc(SCC(N)=O)n1)c1ccccc1 (stereo unspecified) | inconclusive: 29.1 µM [cytotoxic, single point]
44 | CCOC(=O)c1cc(OCC)c2c(ccc3cc(OC)ccc32)n1 | inconclusive: 13 µM [cytotoxic, partial curve]
45 | CC(C)C(=O)Nc1ccc2c(c1)nc(CCN1CCN(c3ccccn3)CC1)n2C | inconclusive: 29.1 µM [rising, single point]
46 | Cc1oc(-c2ccccc2F)nc1CSCC(=O)NC1CCCC1 | inconclusive: 13 µM [cytotoxic, partial curve]
47 | O=C(/C=C/c1ccccc1)Nc1nnc(-c2ccco2)o1 | inconclusive: 23.1 µM [cytotoxic, single point]
48 | FC(F)Sc1nnc(-c2cccs2)n1-c1ccccc1 | inconclusive: 23.1 µM [cytotoxic, single point]

Row | Structure (SMILES) | Potency
49 | CSCC[C@H](NC(=O)OC(C)(C)C)C(=O)N1CCC(C(=O)N[C@@H](C)C(=O)O)CC1 | inactive
50 | O=C(NCc1ccc(F)cc1)C(Cc1ccccc1)NS(=O)(=O)c1cccs1 (stereo unspecified) | inconclusive: 20.6 µM [cytotoxic, single point]
51 | CCCCCN(C(=O)COC(=O)COc1c(C)cc(C)cc1C)c1c(N)n(CCCC)c(=O)[nH]c1=O | inconclusive: 5.8 µM [rising, full curve]
52 | Cc1ccc(-c2cn(S(=O)(=O)c3ccc(C)cc3)nc2N)cc1 | active: 13 µM
53 | Clc1ccc(Cl)c(OCCCCN2CCNCC2)c1 | inconclusive: 10.3 µM [cytotoxic, partial curve]
54 | CC(C)c1ccc(CC(=O)N2CCC2(C)C(=O)NS(=O)(=O)c2ccc(C(C)(C)C)cc2)cc1 (stereo unspecified) | inactive
55 | CN(Cc1ccon1)Cc1cn(C)nc1-c1ccc(Oc2ccccc2)cc1 | inconclusive: 10.3 µM [cytotoxic, partial curve, poor fit]
56 | CCCCCCn1cnc2c(c1=O)c1nc3ccccc3nc1n2/N=C/c1ccco1 | inconclusive: 25.9 µM [cytotoxic, single point]
57 | NC(Cc1ccc(F)cc1)c1csc(Nc2ccc(C(F)(F)F)cn2)n1 (stereo unspecified) | inconclusive: 29.1 µM [cytotoxic, single point]
58 | O=C(COC(=O)c1ccccc1C(=O)c1ccc(Cl)cc1)NCC1CCCO1 (stereo unspecified) | inactive
59 | O=C(NNC(=S)Nc1ccccc1C(F)(F)F)C1CC1 | inactive
60 | COc1ccc(/C=C(/CC(=O)NCc2ccc(Cl)cc2)c2nc3ccccc3s2)cc1 | active: 10.3 µM
61 | CCOC(=O)c1c(-c2ccc(-c3ccccc3)cc2)csc1NC(=O)c1cccc(N2C(=O)CCC2=O)c1 | inconclusive: 23.1 µM [cytotoxic, partial curve, poor fit]
62 | CCCC(c1nnnn1C(C)(C)C)N1CCN(c2ccccc2)CC1 (stereo unspecified) | inconclusive: 23.1 µM [cytotoxic, single point]
63 | COc1ccc(N2CCN(C(=O)c3cc4cc5ccc(Cl)cc5nc4o3)CC2)cc1 | inconclusive: 25.9 µM [rising, single point]
64 | O=C(CSc1nnc(COc2ccccc2Cl)o1)NC(=O)NCc1ccco1 | inactive
65 | O=C(Nc1ccc(Br)cc1)c1cccc(OC(=S)N2CCOCC2)c1 | inconclusive: 14.6 µM [cytotoxic, partial curve]
66 | CCN(CC)C(=O)C1=C(C)N(Cc2ccc(F)cc2)C(=O)C(CC(=O)NC(c2ccccc2)c2ccccc2)C1 (stereo unspecified) | inconclusive: 9.2 µM [cytotoxic, partial curve]
67 | O=C1C(Cc2ccccc2)Nc2ncnc(N3CCc4ccccc4C3)c2N1Cc1ccc(Cl)cc1 (stereo unspecified) | active: 25.9 µM
68 | N#CC(C#N)=Cc1cc2ccccc2nc1N1CCOCC1 | inactive
69 | N=c1c(C(=O)NCc2ccc(F)cc2)cc2c(=O)n3ccccc3nc2n1Cc1ccco1 | inconclusive: 14.6 µM [cytotoxic, partial curve]
70 | CCc1nc2ccccc2c(=O)n1NC(=O)c1c(O)c2ccccc2n(CC)c1=O | active: 8.2 µM
71 | Cc1ccc(F)c(S(=O)(=O)NC(=O)C2(C)CCN2C(=O)COc2ccc(Cl)cc2)c1 (stereo unspecified) | inactive
